Results: publication PMC9256752
No constants are given. Whether binding was seen depends on the method and setting. In cells and extracts the contact can be indirect. Some entries that bind do so weakly or less than the wild type.

Protein sequences, listed by entry. Tags and fused reporters are not part of them.
UniProt Q92769: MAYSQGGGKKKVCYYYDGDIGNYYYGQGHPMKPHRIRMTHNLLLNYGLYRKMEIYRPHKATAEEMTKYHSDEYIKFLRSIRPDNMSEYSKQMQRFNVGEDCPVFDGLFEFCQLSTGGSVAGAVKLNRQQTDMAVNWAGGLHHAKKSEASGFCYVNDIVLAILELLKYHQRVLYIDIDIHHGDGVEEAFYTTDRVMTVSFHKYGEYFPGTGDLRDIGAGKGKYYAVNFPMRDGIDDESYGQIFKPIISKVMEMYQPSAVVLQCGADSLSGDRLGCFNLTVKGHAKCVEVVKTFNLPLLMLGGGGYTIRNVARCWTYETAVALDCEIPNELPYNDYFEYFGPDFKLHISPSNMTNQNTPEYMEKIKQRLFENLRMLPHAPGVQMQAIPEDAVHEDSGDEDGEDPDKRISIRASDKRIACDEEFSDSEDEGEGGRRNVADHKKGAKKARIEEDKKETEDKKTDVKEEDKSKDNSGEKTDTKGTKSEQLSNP

What was measured:
[1] = target: T1, FOXA3 (human (in human HCC cells SMMC-7721 and Huh7)) (UniProt P55318); assay: co-IP; in HCC cells; also after transfection of sh1-DACT3-AS1 (knock-down of lncRNA DACT3-AS1 weakened the binding); no method section for the co-IP
T1 sequence: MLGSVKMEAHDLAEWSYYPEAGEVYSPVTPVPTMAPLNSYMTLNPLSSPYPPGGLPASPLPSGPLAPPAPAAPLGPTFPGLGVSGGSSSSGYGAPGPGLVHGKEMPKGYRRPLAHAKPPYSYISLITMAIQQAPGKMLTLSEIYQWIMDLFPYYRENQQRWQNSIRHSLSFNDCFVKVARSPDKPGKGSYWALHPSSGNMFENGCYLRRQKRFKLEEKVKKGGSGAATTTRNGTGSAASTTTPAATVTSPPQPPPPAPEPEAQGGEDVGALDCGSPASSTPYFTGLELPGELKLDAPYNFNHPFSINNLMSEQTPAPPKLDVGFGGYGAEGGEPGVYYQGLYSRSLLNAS

[2] = target: T1, FOXA3 (human (in human HCC cells SMMC-7721 and Huh7)); assay: pull-down; GST fusion probe protein added to cell lysates, 4 °C for 2 h, isolated on glutathione-coated beads; which partner was the GST fusion is not stated; also with lysates of cells transfected with sh1-DACT3-AS1 (binding weakened); only the target purified

- binding [1]: binds
- binding [2]: binds
Substance: HDAC2 (from UniProt Q92769 1-488)
